Source: the supplement of paper PMC11006884
The targets with a hit were mostly taken out for another list; the other results follow. The data scatter; read single values as rough. The list shows a part of the results, in another mix than the full data.

Chains of the proteins cited; added tags and fusions are not shown. Lines headed by an entry give the natural chain unless they say otherwise; changes in a name come on top.
UniProt Q7RTV0, whole entry, looked up: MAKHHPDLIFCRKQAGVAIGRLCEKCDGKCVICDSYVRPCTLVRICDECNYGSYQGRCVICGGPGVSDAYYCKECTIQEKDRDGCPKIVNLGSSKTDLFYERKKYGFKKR
UniProt Q86WB0: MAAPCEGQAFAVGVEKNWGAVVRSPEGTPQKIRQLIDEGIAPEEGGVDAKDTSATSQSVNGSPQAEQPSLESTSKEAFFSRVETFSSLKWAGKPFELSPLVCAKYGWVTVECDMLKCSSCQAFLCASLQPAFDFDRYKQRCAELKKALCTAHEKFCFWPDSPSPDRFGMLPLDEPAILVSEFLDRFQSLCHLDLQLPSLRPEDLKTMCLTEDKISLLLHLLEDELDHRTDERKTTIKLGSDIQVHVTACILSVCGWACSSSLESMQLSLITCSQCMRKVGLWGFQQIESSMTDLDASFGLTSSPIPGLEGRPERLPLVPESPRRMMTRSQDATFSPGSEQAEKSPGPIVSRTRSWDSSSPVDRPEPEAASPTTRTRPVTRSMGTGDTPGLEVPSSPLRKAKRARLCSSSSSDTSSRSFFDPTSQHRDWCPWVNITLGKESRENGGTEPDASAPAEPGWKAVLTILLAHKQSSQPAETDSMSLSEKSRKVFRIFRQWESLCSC
UniProt Q8IU81: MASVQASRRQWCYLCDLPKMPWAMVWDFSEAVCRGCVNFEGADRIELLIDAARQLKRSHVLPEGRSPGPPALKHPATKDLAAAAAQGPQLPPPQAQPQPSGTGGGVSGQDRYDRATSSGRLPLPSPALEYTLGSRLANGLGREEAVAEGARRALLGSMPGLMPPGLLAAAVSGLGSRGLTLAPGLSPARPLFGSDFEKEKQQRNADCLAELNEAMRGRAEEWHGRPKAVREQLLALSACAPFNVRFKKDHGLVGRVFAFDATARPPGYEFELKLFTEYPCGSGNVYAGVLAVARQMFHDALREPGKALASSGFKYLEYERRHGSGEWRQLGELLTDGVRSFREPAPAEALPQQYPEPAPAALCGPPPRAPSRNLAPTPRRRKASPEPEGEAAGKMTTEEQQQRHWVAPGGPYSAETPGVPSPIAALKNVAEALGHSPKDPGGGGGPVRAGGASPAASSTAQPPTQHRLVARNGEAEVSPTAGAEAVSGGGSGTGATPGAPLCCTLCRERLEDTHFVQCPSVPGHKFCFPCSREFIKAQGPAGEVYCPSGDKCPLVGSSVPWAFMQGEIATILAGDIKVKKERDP
UniProt Q7L2E3: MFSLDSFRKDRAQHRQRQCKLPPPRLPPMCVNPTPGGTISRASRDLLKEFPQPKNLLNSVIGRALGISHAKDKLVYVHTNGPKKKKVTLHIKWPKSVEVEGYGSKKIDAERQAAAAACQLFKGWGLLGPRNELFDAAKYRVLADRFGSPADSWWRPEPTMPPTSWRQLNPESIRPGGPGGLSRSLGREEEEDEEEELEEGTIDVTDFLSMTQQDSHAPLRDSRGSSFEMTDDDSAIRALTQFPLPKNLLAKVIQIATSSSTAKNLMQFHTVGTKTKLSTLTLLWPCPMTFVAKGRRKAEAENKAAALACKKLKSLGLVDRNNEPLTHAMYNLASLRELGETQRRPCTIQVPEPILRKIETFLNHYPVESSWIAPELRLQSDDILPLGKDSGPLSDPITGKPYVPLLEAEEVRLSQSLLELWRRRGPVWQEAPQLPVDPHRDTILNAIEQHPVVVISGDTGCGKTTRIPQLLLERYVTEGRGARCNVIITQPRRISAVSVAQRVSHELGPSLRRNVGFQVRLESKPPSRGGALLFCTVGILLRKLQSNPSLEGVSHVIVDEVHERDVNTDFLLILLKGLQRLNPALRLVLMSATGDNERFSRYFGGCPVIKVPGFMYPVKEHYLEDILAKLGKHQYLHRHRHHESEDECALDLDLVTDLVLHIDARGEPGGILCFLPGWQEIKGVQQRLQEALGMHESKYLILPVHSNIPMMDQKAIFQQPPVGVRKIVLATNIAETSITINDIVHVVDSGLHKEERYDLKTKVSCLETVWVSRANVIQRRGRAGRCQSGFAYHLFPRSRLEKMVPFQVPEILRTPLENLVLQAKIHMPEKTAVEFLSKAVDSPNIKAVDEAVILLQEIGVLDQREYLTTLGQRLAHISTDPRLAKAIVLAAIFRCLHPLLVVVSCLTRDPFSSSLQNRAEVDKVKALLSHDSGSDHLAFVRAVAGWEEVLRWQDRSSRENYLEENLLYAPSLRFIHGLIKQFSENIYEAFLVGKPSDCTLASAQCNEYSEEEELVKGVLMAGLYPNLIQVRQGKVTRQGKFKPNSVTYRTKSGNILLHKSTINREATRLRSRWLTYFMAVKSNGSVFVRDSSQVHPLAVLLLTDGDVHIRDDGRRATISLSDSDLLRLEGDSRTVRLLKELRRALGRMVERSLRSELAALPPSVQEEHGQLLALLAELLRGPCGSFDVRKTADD
UniProt Q8IW35: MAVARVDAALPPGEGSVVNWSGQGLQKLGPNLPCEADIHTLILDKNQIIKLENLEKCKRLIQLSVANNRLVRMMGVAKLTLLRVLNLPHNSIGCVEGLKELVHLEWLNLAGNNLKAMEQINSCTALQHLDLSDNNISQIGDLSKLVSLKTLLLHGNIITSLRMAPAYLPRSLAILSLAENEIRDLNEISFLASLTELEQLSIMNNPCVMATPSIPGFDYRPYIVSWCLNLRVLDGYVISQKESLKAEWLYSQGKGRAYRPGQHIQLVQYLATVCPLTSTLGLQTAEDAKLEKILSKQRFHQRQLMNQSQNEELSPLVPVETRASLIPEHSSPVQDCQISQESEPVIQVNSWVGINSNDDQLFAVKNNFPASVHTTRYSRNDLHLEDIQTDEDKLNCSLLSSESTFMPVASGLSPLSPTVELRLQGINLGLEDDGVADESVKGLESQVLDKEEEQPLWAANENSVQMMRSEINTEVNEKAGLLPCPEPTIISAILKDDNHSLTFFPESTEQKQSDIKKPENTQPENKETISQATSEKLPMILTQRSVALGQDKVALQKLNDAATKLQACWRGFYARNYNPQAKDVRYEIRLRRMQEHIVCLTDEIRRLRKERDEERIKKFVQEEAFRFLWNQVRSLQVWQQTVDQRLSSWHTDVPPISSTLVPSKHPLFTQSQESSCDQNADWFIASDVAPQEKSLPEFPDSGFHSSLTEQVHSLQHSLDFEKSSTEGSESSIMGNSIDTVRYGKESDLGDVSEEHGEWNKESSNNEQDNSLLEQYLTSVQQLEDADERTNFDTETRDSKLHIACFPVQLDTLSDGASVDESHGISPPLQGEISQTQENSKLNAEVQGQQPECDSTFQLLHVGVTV
UniProt Q8IWB7: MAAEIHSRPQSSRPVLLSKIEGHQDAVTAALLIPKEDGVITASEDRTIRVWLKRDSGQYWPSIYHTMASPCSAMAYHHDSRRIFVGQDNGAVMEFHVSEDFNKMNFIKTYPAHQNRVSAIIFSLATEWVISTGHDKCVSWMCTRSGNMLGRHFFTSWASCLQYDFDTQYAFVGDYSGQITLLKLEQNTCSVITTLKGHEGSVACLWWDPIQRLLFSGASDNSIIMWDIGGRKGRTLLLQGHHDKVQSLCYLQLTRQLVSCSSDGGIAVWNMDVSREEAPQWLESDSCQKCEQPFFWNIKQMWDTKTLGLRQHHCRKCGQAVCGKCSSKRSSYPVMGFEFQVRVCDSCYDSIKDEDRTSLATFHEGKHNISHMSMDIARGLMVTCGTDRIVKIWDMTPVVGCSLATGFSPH
UniProt Q8IX01: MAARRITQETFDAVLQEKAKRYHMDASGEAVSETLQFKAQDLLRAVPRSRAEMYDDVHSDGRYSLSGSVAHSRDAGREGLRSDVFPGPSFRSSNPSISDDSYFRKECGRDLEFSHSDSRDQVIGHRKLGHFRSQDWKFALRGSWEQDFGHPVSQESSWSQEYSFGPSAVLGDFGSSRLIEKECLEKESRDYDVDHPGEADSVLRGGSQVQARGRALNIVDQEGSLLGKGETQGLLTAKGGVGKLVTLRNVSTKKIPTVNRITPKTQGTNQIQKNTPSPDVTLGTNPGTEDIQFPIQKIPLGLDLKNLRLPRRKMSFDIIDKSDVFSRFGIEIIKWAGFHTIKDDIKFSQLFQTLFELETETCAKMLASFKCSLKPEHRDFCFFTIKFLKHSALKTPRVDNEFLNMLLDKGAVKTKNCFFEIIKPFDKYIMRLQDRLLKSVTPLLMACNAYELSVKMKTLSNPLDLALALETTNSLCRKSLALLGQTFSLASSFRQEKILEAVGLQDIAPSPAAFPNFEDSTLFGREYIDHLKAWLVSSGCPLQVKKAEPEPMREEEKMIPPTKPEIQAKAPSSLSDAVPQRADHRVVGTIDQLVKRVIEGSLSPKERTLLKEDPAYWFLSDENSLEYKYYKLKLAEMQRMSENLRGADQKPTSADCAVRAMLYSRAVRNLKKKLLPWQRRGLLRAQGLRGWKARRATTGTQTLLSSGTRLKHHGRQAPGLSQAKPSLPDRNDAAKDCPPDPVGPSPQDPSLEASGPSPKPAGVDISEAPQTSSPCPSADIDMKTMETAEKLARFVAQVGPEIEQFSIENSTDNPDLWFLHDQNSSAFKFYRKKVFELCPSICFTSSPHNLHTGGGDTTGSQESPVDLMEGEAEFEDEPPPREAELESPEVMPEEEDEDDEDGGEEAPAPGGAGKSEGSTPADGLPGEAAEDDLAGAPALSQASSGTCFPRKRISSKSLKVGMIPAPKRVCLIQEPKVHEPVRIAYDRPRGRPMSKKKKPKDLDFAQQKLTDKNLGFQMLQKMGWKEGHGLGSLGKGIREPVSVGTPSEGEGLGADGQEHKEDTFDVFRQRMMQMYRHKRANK
UniProt Q86VP6: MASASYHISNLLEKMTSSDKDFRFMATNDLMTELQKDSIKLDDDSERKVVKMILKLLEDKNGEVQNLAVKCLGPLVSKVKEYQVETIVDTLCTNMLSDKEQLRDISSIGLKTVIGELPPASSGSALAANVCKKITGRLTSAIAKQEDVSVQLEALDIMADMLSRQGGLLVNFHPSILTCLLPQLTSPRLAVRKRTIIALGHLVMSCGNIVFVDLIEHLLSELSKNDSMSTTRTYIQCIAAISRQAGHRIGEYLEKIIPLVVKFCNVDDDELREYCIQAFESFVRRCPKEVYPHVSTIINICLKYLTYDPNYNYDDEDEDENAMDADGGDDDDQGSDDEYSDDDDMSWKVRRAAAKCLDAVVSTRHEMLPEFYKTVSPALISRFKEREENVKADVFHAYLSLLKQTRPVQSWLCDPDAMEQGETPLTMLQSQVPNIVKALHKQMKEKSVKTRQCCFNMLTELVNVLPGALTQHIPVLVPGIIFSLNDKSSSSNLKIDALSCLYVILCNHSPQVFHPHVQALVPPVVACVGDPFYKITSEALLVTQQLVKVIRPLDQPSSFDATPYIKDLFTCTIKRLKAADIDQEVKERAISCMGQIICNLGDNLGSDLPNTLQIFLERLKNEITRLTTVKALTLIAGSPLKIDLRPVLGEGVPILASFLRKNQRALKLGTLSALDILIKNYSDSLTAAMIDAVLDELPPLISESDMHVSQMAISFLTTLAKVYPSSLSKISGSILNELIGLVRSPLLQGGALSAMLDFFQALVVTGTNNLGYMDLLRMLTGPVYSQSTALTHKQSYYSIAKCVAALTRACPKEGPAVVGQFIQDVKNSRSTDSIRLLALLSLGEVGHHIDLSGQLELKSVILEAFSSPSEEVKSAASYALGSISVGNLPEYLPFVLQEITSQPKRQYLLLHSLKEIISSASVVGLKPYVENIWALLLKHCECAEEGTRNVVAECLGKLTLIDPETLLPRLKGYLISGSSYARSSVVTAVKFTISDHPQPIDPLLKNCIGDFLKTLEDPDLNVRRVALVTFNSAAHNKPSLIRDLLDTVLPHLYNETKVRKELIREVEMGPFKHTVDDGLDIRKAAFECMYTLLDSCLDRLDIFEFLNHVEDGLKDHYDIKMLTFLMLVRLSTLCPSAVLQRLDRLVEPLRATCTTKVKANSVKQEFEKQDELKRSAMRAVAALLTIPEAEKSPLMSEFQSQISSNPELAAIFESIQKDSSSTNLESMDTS
UniProt Q86U28: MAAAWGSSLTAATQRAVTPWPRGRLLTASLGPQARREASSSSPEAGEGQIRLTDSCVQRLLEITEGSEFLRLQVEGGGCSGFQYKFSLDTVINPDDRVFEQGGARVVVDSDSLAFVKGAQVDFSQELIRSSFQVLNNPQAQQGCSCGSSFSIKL

What follows are targets tested with COC(=O)/C=C/c1ccccc1 [methyl cinnamate] (assay: log2 ratio of iodoacetamide-alkyne labeling of the cysteine site, DMSO over compound (competition); higher = stronger covalent engagement of the cysteine by the compound, active = 1 or more). Details: 500 µM; treatment time 1 h; system: HEK293T cell lysate.
Outline: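 For each cysteine, the log2 competition ratio is mean control-channel reporter intensity over mean compound-channel reporter intensity. HEK293T lysate (2 mg/mL) was exposed to vehicle or electrophile (500 µM, 1 h, ambient temperature), labelled with iodoacetamide alkyne (1 h), clicked to sCIP-TMT reagents, digested overnight with trypsin at 37 °C, streptavidin-enriched and analysed by Orbitrap Eclipse LC-MS/MS with FAIMS and FragPipe. Cysteines quantified in only one of three replicates, each with duplicate channels, were excluded.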

log2 ratio of iodoacetamide-alkyne labeling, inactive:
UniProt Q7RTV0_C46 0.104
ZC3HC1 C500 (UniProt Q86WB0) 0.0565
IRF2BP1 C363 (UniProt Q8IU81) 0.279
TRMT2A C463 (UniProt Q8IZ69) 0.259
DHX30 C1183 (UniProt Q7L2E3) -0.0704
CEP97 C336 (UniProt Q8IW35) 0.711
MICAL3 C1760 (UniProt Q7RTP6) 0.0974
DHX30 C309 (UniProt Q7L2E3) 0.517
ZC3HC1 C5 (UniProt Q86WB0) 0.0444
WDFY1 C401 (UniProt Q8IWB7) 0.23
PBRM1 C50 (UniProt Q86U86) -0.27
UniProt Q8IX01_C947 -0.0655
CAND1 C275 (UniProt Q86VP6) 0.21
ISCA2 C146 (UniProt Q86U28) 0.503
DDX42 C281 (UniProt Q86XP3) 0.251

Nothing new here: entries from further up.
log2 ratio of iodoacetamide-alkyne labeling, inactive:
DHX30 C1183 (UniProt Q7L2E3) -0.0704
CEP97 C336 (UniProt Q8IW35) 0.711
MICAL3 C1760 (UniProt Q7RTP6) 0.0974
